# Percent effect of library compounds

The chains behind the UniProt entries cited, without tags or fusion partners.
UniProt P9WPC5, whole entry: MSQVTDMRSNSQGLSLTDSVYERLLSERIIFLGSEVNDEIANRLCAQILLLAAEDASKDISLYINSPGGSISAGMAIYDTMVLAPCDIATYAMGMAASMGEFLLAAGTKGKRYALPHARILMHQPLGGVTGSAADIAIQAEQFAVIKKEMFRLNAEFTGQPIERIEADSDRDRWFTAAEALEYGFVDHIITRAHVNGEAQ
UniProt P9WPC3, whole entry partner: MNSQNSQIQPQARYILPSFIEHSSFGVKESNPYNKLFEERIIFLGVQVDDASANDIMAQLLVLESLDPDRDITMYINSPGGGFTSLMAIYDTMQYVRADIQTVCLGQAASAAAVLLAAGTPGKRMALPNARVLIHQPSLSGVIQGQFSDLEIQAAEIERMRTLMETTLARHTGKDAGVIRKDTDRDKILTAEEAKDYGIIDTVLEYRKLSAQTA
UniProt I6X8D2, whole entry: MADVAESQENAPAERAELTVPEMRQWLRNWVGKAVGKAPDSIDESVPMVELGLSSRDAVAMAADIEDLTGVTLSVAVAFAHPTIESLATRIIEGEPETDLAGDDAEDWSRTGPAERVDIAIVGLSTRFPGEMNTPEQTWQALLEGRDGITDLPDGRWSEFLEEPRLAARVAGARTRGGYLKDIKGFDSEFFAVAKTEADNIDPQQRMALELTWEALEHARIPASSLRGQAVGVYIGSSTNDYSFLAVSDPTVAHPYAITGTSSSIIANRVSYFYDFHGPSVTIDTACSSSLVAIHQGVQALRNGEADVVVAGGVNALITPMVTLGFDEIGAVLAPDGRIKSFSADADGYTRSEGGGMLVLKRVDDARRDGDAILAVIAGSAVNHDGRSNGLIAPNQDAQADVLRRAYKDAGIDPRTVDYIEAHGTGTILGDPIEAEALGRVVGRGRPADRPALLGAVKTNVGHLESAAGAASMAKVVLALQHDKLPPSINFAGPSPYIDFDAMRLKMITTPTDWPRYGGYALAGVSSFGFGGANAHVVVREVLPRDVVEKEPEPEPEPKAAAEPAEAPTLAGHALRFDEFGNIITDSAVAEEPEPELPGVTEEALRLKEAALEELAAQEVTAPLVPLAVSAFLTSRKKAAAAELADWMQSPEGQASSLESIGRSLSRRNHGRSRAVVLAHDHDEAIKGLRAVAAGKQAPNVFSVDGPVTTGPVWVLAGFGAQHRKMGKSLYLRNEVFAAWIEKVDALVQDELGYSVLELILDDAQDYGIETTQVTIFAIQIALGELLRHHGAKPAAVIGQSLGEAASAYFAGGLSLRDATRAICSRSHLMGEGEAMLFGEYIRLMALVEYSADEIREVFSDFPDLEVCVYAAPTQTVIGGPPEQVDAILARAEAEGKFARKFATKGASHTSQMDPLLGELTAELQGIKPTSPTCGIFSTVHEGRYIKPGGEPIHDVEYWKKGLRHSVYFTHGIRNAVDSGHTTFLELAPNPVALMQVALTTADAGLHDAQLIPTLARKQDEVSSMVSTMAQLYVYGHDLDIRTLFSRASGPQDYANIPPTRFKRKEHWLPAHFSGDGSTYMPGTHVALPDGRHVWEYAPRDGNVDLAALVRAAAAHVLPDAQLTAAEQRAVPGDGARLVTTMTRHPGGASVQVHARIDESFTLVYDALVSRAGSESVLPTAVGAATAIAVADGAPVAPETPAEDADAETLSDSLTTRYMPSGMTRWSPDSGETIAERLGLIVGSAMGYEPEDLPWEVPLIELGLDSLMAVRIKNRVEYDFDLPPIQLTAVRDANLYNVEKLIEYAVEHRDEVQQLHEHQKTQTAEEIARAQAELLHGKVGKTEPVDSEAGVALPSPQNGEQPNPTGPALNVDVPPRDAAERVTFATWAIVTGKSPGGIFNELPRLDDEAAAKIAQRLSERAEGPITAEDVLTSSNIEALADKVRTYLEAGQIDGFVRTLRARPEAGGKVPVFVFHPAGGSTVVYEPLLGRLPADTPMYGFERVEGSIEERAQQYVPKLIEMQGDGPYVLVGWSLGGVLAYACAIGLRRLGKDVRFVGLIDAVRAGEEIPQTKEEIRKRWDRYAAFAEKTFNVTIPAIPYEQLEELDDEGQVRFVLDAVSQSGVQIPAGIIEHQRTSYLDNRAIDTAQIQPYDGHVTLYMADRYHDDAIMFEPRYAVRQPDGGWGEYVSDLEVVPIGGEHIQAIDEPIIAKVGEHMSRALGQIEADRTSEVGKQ
UniProt P9WFT3, whole entry: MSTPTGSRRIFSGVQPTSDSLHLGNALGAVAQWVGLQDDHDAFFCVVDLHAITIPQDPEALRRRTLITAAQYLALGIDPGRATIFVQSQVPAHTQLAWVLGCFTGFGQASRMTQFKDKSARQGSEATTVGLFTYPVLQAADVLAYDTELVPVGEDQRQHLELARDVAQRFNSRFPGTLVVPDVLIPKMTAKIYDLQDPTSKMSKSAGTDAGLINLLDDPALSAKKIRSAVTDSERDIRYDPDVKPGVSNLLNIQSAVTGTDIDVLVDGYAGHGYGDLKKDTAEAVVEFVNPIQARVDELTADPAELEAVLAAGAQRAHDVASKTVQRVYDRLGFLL

From ChEMBL document CHEMBL3988442, “University of Dundee, Small-Polar-MMV Screening Library” (2021).

ClpP1P2: 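Protease assay of ClpP1P2, read by the AMC dye that it sets free. Target: ClpP1P2, Mycobacterium tuberculosis (UniProt P9WPC5 and UniProt P9WPC3). Compounds at 50 µM. Higher reads as stronger inhibition, judged from the few compounds that gave an IC50. Most other retested compounds had strongly negative values. Size under these conditions: about 69,000 compounds, about 10 of them at 50% or above in at least one test.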
Pks13 thioesterase: 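Polyketide synthase Pks13, Mycobacterium tuberculosis (UniProt I6X8D2). Enzyme assay of the thioesterase domain of polyketide synthase 13; the read-out is not stated. Concentration: 30 µM. Higher reads as stronger inhibition (inferred from which compounds were picked for retests). Of about 67,000 compounds tested this way, about 300 (0.46%) reached 50% or more in at least one test.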
MtTrpRS: 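Enzyme assay of tryptophanyl-tRNA synthetase; the read-out is not stated. Target: Tryptophan-tRNA ligase, Mycobacterium tuberculosis (UniProt P9WFT3). Concentration: 10 µM. Higher most likely means stronger inhibition; the record gives no direction and few retests gave an IC50. Of about 65,000 compounds tested this way, about 64 (0.098%) reached 50% or more in at least one test.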

Each number is a percent effect as filed. How 0% and 100% were set is not recorded. Most values in the screen are low, and negative values occur. Compounds were drawn at random from those tested, without regard to their results. A dash means the value is not listed here; it may have been measured.

structure	ClpP1P2	Pks13 thioesterase	MtTrpRS
CNS(=O)(=O)c1ccc(CNC(=O)Nc2cn[nH]c2)cc1	-2.421	-10.7	-3.955
CC(C)CN1Cc2c(C(=O)NC3CC3)ncn2-c2ccccc2S1(=O)=O	-12.45	-13.03	-6.173
Cc1csc(N(C)C(=O)C(c2c(F)cccc2Cl)N(C)C)n1 (stereo not drawn)	-14.81	-1.954	-4.376
c1ccc(-c2nc3c(c(NCc4nnc5n4CCC5)n2)CCNC3)cc1	-8.23	-21.24	-2.193
CN(Cc1nc2ccsc2c(=O)[nH]1)CC1CCCCC1	2.744	-15.06	2.096
CCC1CCCCCN1C(=O)c1coc(S(=O)(=O)N(C)C)c1 (stereo not drawn)	-4.293	-32.31	-2.285
CC(=O)N1CCN(C(=O)CN2CCc3c(ncn3C3CC3)C2)CC1	9.571	-16.06	-3.801
CN(CCNC(=O)c1cccnc1)S(C)(=O)=O	-10.92	-10.32	-1.127
CCN1C[C@H]2[C@@H](C1)N(C(=O)Cc1ccsc1)CC[C@H]2OC	-3.072	-25.55	2.326
N#CCCNC(=O)CN1CC(n2cccn2)C1	-10.49	-20.2	-2.394
O=C(NCCn1ccnc1)N1CCCC1c1cccs1 (stereo not drawn)	-8.474	-26.29	-1.604
Cc1noc(C)c1CN(C)C(=O)NC1CCCN(S(C)(=O)=O)C1 (stereo not drawn)	-7.31	-12.88	9.358
O=C1CC2(CCN(Cc3cccnc3)C2)CN1c1cccc(F)c1 (stereo not drawn)	-7.522	-26.58	-4.843
CC1c2cccn2CCN1S(=O)(=O)N1CCCCCC1 (stereo not drawn)	-8.612	-0.297	0.5482
CCc1nnc2n1CCN(C(=O)c1cnc3c(cnn3C(C)C)c1)C2	-0.06382	-29.77	0.6606
Cc1cnc(NCC(C)(C)N2CCOCC2)nc1	-18.44	-7.044	-2.974
Cc1ccn(CC(=O)N2CC[C@@H](c3ccc4ccccc4c3)[C@H](O)C2)n1	-16.51	-10.74	-0.8112
CCOc1ccccc1C(CC(=O)Nc1ccccc1F)NC(C)=O (stereo not drawn)	10.53	-5.807	0.3145
O=c1ccncn1Cc1csc(C2CC2)n1	6.005	-17.71	-0.273
Cc1cc(C(=O)NCc2cccnc2N2CCCC(O)C2)c(C)o1 (stereo not drawn)	-11.21	4.002	-3.399
CCC(CO)N(Cc1ccccn1)C(=O)c1cccc(C#N)c1 (stereo not drawn)	-5.981	-17.25	-1.374
CS(=O)(=O)N1Cc2nccn2CC(CNC(=O)c2cccnc2)C1 (stereo not drawn)	5.556	-25.14	1.841
Cc1nc(CN(C)C2CCN(Cc3ccc4c(c3)CCC4)C2)no1 (stereo not drawn)	-59.46	-7.029	-1.129
Cc1nn(C)c(C)c1-c1nccnc1CC1CCNCC1	-11.7	-8.325	-4.525
CCCC(=O)N(CCCN1CCOCC1)c1nc2c(C)ccc(Cl)c2s1	7.492	15.52	-4.939
COc1ccccc1C(O)CNC(=O)NCc1csc(C)n1 (stereo not drawn)	-5.326	-13.61	-6.789
Cc1nc(C(=O)N(C)CC(F)(F)C(F)(F)F)c2ccccn12	-229.9	132	0.2241
CNc1c(NCc2ccco2)c(=O)c1=O	-18.75	-6.351	2.34
Cc1noc(C)c1-c1ccc(C2CCCN2C(=O)c2cccnc2)nc1 (stereo not drawn)	-1.097	6.332	0.05798
CNC(=O)CC1CCN(C(=O)Nc2ccc(-c3cc[nH]n3)cc2)CC1	5.939	-13.26	0.6053
CC(C)Cn1cncc1CNC1CCSC1 (stereo not drawn)	5.474	-24.9	-3.576
CC(C)(C)CC(=O)N1CC[C@@H](CC(=O)O)[C@@H](CCN2CCCCC2)C1	-4.511	-22.53	-2.786
Nc1nc2c(c(NCC(c3cccnc3)N3CCOCC3)n1)CCNC2 (stereo not drawn)	6.327	-15.59	-0.9889
O=C(c1cc(-n2cccn2)ccn1)N(CC(F)(F)F)C1CCCC1	-7.626	-15.43	-2.993
NC(=O)c1cc(C2CCCN(Cc3ccc4c(c3)OCCO4)C2)n[nH]1 (stereo not drawn)	-9.614	-4.739	-5.05
CC(=O)Nc1cccc(-c2ccccc2CCN)c1	-1.669	-8.985	-2.21
COC(=O)c1ccccc1NS(=O)(=O)c1c(C)nn(C)c1C	8.927	-15.96	-2.873
CSCc1noc(C2CCC(=O)N(CCCN3CCCC3=O)C2)n1 (stereo not drawn)	-2.214	-29.81	7.195
CNc1nc(C(=O)N2C[C@H]3CC[C@@H]2CN(S(C)(=O)=O)C3)cs1	-7.587	-1.055	-3.476
COc1ccc(NC(=O)CCN2CC=C(c3cnn(C)c3)CC2)cc1Cl	-4.991	3.962	-3.265
Cc1ccc(NC2CCN(C(=O)c3c(C)nn(C)c3Cl)CC2)nn1	-37.54	-9.235	-4.68
CN(C)C(=O)CN1C(=O)CCC12CCN(Cc1ccc(F)cc1)CC2	21.55	-10.66	0.229
Cc1ccc(CN2CC(O)CN(C(=O)C3CC3)CC2=O)cc1 (stereo not drawn)	8.291	5.975	-
O=C(O)c1cc(-c2ccoc2)cc(S(=O)(=O)N2CCSCC2)c1	-9.172	-43.14	2.355
Cc1n[nH]c(C)c1C1COCCN1C(=O)c1n[nH]c2ccccc12 (stereo not drawn)	10.98	-36.45	6.016
O=C(c1cc(C2CC2)on1)N1CCC(Oc2ncccc2Cl)CC1	2.629	-37.91	-4.787
Cc1ccc(OC2(C(=O)NC(C)c3csc(C)n3)CCNCC2)cc1 (stereo not drawn)	-16.95	9.96	0
O=C(Cc1ccccn1)N1CCC(c2noc(-c3ccncc3)n2)CC1	16.99	3.597	-7.478
COCCc1noc(-c2cn(Cc3ccc(OC)cc3)nn2)n1	-26.15	-2.842	-2.605
CCCn1[nH]cc/c1=N\C(=O)CN1CCc2c(nc(C(C)C)n2C)C1	19.45	-7.767	-1.016
COc1ccccc1CN(Cc1cccnc1)CC1CCCO1 (stereo not drawn)	-4.799	13.87	-
COc1cccn(CC(=O)N2CCCC3(CCCCC3)C2)c1=O	0.6062	-9.457	3.577
CC(C)(C)c1ccc(C2(C(=O)NCCS(N)(=O)=O)CC2)cc1	-6.355	-12.18	6.545
CCc1ccc(C(=O)N2CCN(CCS(C)(=O)=O)CC2)o1	8.616	-6.35	0.7862
CC(C)CN1CCS(=O)(=O)[C@@H]2CCN(S(=O)(=O)c3ccccc3)CC[C@@H]21	-1.916	-5.164	0.07048
Cn1ncc2c1CCCC2NCc1cccc(C(F)(F)F)c1 (stereo not drawn)	-16.2	-0.2006	-7.062
Cc1ccc(CN(C)C(=O)CN2CCCC2c2cnn(C)c2)o1 (stereo not drawn)	-11.31	21.31	6.437
CCOCc1nc2c(c(N(C)Cc3ccsc3)n1)CCNCC2	-13.04	-4.407	0.5727
COc1cccc(CC(=O)NCCc2nnc3n2CCCCC3)c1	18.18	-5.906	18.35

For reference, 4 entries once more:

| structure | ClpP1P2 | Pks13 thioesterase | MtTrpRS |
|---|---|---|---|
| `NC(=O)c1cc(C2CCCN(Cc3ccc4c(c3)OCCO4)C2)n[nH]1` (stereo not drawn) | -9.614 | -4.739 | -5.05 |
| `CC1c2cccn2CCN1S(=O)(=O)N1CCCCCC1` (stereo not drawn) | -8.612 | -0.297 | 0.5482 |
| `CCN1C[C@H]2[C@@H](C1)N(C(=O)Cc1ccsc1)CC[C@H]2OC` | -3.072 | -25.55 | 2.326 |
| `O=C(O)c1cc(-c2ccoc2)cc(S(=O)(=O)N2CCSCC2)c1` | -9.172 | -43.14 | 2.355 |